Measured values reported in article PMC7862700.
The entries are a selection whose mix differs from that of the whole data set. For some assays here: At the low end of the ranking the order means little.

Key:
Experiment in all cases: DAPPL (digital affinity profiling via proximity ligation, sequencing)
Conditions in all cases: 10 mM Tris-HCl pH 7.5, 50 mM NaCl, 1 mM DTT, 4% glycerol, room temperature, 30 min; GST-TFs on glutathione beads, 16-mer random dsDNA library, 0.1% …; high values mean tight binding; double strand, one strand shown; scale: fold enrichment (6-mer frequency, TF over GST control)
[1] = molecular target: T1, ELK1 (UniProt P19419)
T1 sequence: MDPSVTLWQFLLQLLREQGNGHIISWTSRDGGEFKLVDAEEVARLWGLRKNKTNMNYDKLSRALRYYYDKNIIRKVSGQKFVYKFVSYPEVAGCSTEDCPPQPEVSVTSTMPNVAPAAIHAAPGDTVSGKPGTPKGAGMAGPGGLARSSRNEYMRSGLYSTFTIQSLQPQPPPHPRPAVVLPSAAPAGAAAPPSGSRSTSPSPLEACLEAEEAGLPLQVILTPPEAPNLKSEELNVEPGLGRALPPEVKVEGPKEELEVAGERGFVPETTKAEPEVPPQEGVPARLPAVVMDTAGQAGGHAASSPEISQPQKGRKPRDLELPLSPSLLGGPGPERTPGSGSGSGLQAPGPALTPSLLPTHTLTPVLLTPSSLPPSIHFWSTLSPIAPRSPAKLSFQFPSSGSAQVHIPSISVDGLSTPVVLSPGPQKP

[2] = molecular target: T2, ETV3 (UniProt P41162-2)
T2 sequence: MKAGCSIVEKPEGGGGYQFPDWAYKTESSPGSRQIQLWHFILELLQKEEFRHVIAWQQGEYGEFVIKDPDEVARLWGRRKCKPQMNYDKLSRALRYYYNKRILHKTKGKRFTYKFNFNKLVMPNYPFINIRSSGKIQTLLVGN

[3] = molecular target: T3, ELK3 (UniProt P41970)
T3 sequence: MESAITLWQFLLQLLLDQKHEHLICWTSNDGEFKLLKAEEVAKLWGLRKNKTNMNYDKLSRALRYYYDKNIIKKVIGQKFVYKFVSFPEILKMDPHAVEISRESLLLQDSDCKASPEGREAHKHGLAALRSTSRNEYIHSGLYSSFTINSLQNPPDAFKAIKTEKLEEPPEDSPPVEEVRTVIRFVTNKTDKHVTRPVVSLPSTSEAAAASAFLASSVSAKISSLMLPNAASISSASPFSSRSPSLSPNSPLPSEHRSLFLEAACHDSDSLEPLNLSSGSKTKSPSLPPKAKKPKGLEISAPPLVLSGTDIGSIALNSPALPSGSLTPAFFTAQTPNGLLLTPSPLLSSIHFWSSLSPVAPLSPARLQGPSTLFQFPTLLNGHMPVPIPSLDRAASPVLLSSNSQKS

[4] = molecular target: T4, ETS2 (UniProt P15036)
T4 sequence: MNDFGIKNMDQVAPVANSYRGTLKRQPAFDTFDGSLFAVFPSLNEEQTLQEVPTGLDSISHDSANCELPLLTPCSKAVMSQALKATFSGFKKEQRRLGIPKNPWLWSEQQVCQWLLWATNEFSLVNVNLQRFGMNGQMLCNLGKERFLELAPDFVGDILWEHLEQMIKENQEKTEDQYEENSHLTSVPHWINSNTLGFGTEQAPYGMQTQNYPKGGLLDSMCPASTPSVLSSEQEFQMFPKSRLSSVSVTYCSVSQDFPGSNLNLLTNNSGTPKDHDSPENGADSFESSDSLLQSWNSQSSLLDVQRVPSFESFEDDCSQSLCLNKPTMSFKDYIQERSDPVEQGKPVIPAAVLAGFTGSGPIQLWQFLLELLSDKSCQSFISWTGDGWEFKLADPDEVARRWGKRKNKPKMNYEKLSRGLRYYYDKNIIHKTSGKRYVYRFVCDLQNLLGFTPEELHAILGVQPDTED

Sequence | binding signal [1] | binding signal [2] | binding signal [3] | binding signal [4]
TTAAGC | 1.18 | 1.22 | – | –
GTATTC | 1.17 | 1.34 | – | –
TCCCGC | 1.53 | – | 1.46 | 1.34
TCGATC | 1.08 | 1.18 | – | –
ATGAAA | 1.17 | 1.1 | – | –
CTATAA | 1.22 | 1.14 | – | –
ATTTCC | 3.9 | 4.45 | – | –
AAAGAA | 1.24 | 1.2 | 1.3 | –
CTCAAA | 1.14 | 1.2 | 1.15 | –
GCATCC | 1.67 | 1.62 | – | –
GTACTC | 1.09 | 1.11 | – | –
TCTCGG | 1.41 | 1.37 | – | –
CCTGGT | 1.34 | 1.49 | – | –
CTACGA | 1.24 | 1.15 | – | –
TTGTCC | 1.32 | 1.36 | – | –
CTGCGA | 1.31 | 1.32 | – | –
CCGATA | 1.13 | 1.14 | – | –
TTTGAG | 0.998 | 1.22 | 0.903 | –
CGTTCG | 1.14 | 1.19 | – | –

Sequence | binding signal [1] | binding signal [2] | binding signal [3] | binding signal [4]
AAAAAG | 1.18 | 1.23 | 1.2 | –
TTCCTT | 1.79 | 2.13 | 2.09 | –
GGCCCC | 0.94 | – | 0.993 | 1.03
AACCCA | 1.03 | 0.982 | – | –
TAATCT | 1.34 | 1.28 | 1.46 | –
TATTGG | 1.14 | 1.17 | 1.07 | –
AATTGG | 1.36 | 1.28 | – | –
AGCTTC | 1.86 | – | 2.06 | 1.77
GAAAAG | 1.01 | 0.996 | 0.972 | –
ACCATA | 1.16 | 1.19 | 1.22 | –
GTGGCT | – | 1.12 | – | –
CTTCGC | – | – | – | 1.42
AAATAT | – | 1.29 | – | 1.37
TTGCAT | – | – | – | 1.42
TCGATT | – | 1.01 | – | 1.16
TACGAA | – | 1.19 | – | 1.18
ACTCTC | – | 1.5 | – | 1.48
TTCTTT | – | 1.2 | – | 1.32
CTCTAG | – | 1.4 | 1.26 | 1.26

Record cards, as listed above.
GCATCC is listed with binding signal [1] = 1.67; binding signal [2] = 1.62
TCGATT is listed with binding signal [2] = 1.01; binding signal [4] = 1.16
